Test results as given in patent US20090297503A1 (Chugai, published 2009).
No constants are given. Whether binding was seen depends on the method and setting. Some results given as binding are weak or reduced against the parent protein; the word gives no strength.

Chains of the proteins cited; added tags and fusions are not shown. Lines headed by an entry give the natural chain unless they say otherwise; changes in a name come on top.
UniProt P00451: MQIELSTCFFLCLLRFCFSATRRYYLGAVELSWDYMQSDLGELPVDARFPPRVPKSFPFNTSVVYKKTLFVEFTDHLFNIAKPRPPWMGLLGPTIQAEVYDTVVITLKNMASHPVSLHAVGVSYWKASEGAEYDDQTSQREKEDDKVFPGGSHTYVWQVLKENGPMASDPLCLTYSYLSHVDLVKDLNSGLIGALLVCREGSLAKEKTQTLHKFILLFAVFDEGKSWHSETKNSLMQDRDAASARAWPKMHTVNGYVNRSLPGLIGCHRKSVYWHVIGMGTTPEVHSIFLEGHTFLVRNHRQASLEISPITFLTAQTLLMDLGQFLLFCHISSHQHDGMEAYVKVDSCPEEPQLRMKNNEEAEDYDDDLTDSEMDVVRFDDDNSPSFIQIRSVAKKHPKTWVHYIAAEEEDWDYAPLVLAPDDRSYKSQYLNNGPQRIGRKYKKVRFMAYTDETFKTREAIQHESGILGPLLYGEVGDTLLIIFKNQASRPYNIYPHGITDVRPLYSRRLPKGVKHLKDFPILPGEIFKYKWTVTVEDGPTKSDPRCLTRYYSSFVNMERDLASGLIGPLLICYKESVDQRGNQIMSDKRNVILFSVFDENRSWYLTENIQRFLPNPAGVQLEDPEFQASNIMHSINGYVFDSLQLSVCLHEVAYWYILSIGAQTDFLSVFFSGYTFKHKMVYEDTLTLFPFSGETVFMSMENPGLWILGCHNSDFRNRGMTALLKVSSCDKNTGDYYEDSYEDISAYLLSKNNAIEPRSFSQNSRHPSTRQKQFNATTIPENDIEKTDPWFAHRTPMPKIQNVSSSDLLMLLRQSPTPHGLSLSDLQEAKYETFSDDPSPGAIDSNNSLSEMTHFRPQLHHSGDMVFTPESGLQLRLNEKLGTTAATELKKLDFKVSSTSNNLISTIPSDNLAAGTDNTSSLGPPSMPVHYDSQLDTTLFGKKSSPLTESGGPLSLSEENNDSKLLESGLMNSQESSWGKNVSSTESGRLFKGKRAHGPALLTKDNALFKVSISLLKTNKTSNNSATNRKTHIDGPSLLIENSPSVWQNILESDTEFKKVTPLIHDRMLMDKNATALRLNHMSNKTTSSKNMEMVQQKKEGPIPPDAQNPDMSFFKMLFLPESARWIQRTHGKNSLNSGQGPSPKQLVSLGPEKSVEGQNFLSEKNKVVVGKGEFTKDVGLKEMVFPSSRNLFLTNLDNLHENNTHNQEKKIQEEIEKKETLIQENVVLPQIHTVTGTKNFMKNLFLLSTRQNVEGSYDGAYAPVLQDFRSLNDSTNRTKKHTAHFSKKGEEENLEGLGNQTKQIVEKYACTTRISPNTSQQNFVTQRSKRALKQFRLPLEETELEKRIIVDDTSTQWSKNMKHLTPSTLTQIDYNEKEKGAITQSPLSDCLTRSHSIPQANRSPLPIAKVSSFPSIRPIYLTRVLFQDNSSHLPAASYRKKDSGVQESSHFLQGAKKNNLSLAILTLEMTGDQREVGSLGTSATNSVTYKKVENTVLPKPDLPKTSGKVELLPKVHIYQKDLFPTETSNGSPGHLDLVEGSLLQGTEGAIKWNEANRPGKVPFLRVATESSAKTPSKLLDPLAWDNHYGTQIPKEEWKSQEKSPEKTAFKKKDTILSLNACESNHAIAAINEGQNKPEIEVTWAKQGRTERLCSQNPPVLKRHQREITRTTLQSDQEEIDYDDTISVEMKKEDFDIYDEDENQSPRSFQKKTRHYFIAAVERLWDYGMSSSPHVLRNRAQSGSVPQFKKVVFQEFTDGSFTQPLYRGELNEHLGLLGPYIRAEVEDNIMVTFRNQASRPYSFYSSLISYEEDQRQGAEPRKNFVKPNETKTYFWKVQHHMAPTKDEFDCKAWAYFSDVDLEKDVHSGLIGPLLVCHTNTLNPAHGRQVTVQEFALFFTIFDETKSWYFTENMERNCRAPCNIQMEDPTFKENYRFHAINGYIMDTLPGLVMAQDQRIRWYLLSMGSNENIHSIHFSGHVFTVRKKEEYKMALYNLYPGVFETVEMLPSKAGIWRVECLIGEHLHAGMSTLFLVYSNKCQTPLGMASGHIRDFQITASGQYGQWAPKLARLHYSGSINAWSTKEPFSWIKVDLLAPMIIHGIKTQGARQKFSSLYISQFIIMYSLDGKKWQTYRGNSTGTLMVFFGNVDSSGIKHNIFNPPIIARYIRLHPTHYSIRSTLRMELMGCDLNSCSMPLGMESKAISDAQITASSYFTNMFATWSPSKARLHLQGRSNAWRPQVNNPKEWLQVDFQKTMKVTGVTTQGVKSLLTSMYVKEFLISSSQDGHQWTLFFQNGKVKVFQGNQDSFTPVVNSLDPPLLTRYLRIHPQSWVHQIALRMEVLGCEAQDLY

Legend:
Factor VIII heavy chain [1] = target: T1, Factor VIII heavy chain (human, UniProt P00451 20-1667, limits assumed); experiment: SPR, moAb216 immobilized on sensor chip
T1 construct: only the heavy chain part stood in the assay; also called HCh

Factor VIII heavy chain [2] = target: T1, Factor VIII heavy chain; experiment: ELISA, heavy chain immobilized on microtiter wells, biotinylated moAb216
Factor VIII heavy chain [3] = target: T1, Factor VIII heavy chain; experiment: ELISA: Factor VIII heavy chain (50 nM) coated on microtiter wells, biotinylated moAb216 added, detected with peroxidase-conjugated streptavidin, absorbance at 492 nm
Procedure: Microtiter wells were coated with Factor VIII or its subunit (50 nM) in 20 mM Tris, and 0.15 M NaCl, pH 7.4, overnight at 4° C. The wells were washed with PBS containing 0.01% Tween 20 and were blocked with PBS containing 5% HSA for two hours at 37° C. The indicated concentrations of biotinylated-moAb216 were then added in 20 mM HEPES, 0.1 M NaCl, 5 mM CaCl₂, and 0.01% Tween 20, pH 7.2 (HBS-buffer) containing 1% HSA for two hours at 37° C. Bound IgG was quantified by the addition of peroxidase-conjugated streptavidin and O-phenylenediamine dihydrochloride substrate. Reactions were stopped by the addition of 2 M H₂SO₄, and absorbance was measured at 492 nm. The amount of nonspecific binding of anti-mouse peroxidase-conjugated IgG in the absence of moAb216 was <5% of the total signal. Specific binding was recorded after subtracting the nonspecific binding.

Measured: binding

B1: anti-Factor VIII monoclonal antibody moAb216 (antibody, V domains shown)
VH: EVRLVESGGGLVKPGGSLKLSCAASEFTFSSYSMSWVRQTPEKRLEWVASINSGGRTFYPDSVKGRFTISRDNARNILVLQMSSLRSEDTAMYYCARVIYYDYGAYALDYWGQGTSLTVSS
VL: EIVLTQSPALMAAYPGEKVTITCSVSSSISSSNLHWYQQKSETSPKLWIYGTSNLASGVPVRFSGSGSGTSYSLTISSMEAEDAATYYCQQWNIYPLTFGAGTKLELK
notes: It was biotinylated for the ELISAs and coupled covalently to a CM5 chip for SPR; also called moAb216 IgG; biotinylated moAb216
binds: Factor VIII heavy chain [1] | Factor VIII heavy chain [2] | Factor VIII heavy chain [3]
